Patent US20090155179A1, “KINETIC BIOMARKER FOR QUANTIFICATION OF LYMPHOPROLIFERATION, CLONAL EXPANSION, RECRUITMENT AND TRAFFICKING IN LYMPHOID TISSUES AND OF THE IN VIVO ACTIONS OF ANTIGENS AND MODULATING THEREON” (KINEMED, INC., priority 2005, published 2009)
“Also recorded” adds a separate entry of the source. At least one structure is not confirmed: it was looked up by name or label, or the drawing left a doubt.

Test system: PLN cells (draining popliteal lymph node lymphocytes)
Assay: kinetic PLNA (popliteal lymph node assay) with continuous 2H2O labeling after footpad immunization
Type: in vivo, Balb/c mice
Settings: Balb/c
Description: PLNA and heavy water labeling. The kinetic PLNA was performed as follows, except as noted in the Figure legends. In all experiments, groups of n=4 or 5 Balb/c mice were immunized subcutaneously on day 0 in the left hind footpad (toe to heel direction) with 20 μl PBS or drug vehicle (negative control group), or with 20 μl PBS containing 5-25 μg KLH (positive control group). Heavy water labeling was initiated on day 0 by intraperitoneal administration of 99.9% ^2H2O containing 0.9% w/v NaCl at 35 ml/kg body weight, and animals were maintained on 8% ^2H2O in drinking water for the remainder of the study. At day 7 post immunization, animals were bled into heparinized tubes by cardiac puncture under isoflurane anesthesia and sacrificed by cervical dislocation. The blood was centrifuged at 1500×g for 10 minutes, and heparinized plasma was stored at −20° C. for determination of body water ^2H enrichment; a second aliquot was frozen for serologic studies. Bone marrow was harvested from the right hindlimb femur by flushing the bone with 1 ml PBS using a 25 ga cannula and centrifuging the tissue and cell suspension at 450×g for 5 min.
Analysis of PLN cells. Draining PLN were dissected from the left hind limb, mechanically dispersed, using tweezers, into ice-cold RPMI 1640 containing 10% fetal bovine serum and antibiotics. The cell suspensions were thoroughly mixed and strained through a 35 μm cell strainer fitted to a 12×75 mm polystyrene tube (BD Biosciences, San Jose, Calif.) and centrifuged at 450×g at 4° C. for 5 min. Cells were suspended in 100 μl staining buffer (PBS containing 0.5% w/v bovine serum albumin, 2 mM EDTA, and 0.05% sodium azide), blocked by addition of 20 μl mg/ml murine IgG (Sigma) and 2 μl anti-CD16/CD32 mAb (Miltenyi Biotec, City/State) at 4° C. for 15 min., and stained with anti-CD3-FITC and anti-B220-PE/Cy5 (eBioscience, 1 μl each) for 15 min. The samples were diluted to 900 μl with staining buffer, mixed thoroughly with 100 μl Flow-Count fluorospheres, and analyzed on an Epics XL flow cytometer (Beckman Coulter, City/State) for determination of absolute lymph node cell counts and percentages and absolute counts of T cells, B cells, and non-T/B cells. Absolute cell counts per lymph node were determined as:
Analysis of ^2H incorporation into purine dR. DNA was extracted from samples of bone marrow, total PLN cells, or sorted T and B cells using DNEasy kits (Qiagen, Valencia, Calif.) according to the manufacturer's instructions. Aliquots (0.5 μg) were hydrolyzed to […] by overnight incubation at 37° C. with 0.5 units nuclease SI (Sigma) and 0.25 units potato acid phosphatase (Calbiochem) in 75 mM sodium acetate buffer, pH 4.8, containing 0.15 mM ZnSO4. […] The hydroxyl groups were acetylated using acetic anhydride and N-methylimidazole, and the resultant pentafluorobenzyl […] derivative was extracted into dichloromethane, dried under vacuum, and redissolved in 100 μl ethyl acetate. The derivative was analyzed by gas chromatography/mass spectrometry (GC/MS) as described supra, with selected ion monitoring at m/z 435 (for the parent mass isotopomer, M0) and 436 (M1). After integration of the M0 and M1 peak area using ChemStation software, the excess mole fraction of the M1 mass isotopomer (EM1) was calculated as: […]
Calculations and statistics. Fractional turnover of PLN cell populations (f, the fraction of total, T, or B cells that have divided during the labeling period, representing clonal expansion, FIG. 1) was calculated as:
f=EM1observed/EM1maximal,
where EM1maximal was represented, in most experiments, by bone marrow DNA from the same animal, or assumed to equal 0.14. Alternatively, for mice labeled for less than four days, EM1maximal was represented by 0.9× the EMI value predicted from the animal's body water ^2H enrichment (the factor of 0.9 represents dilution by salvage).

## O=[N+]([O-])c1ccc(Cl)c([N+](=O)[O-])c1 [DNCB, 2,4-dinitrochlorobenzene]
Footpad immunization, day 7
  PLN cellularity (cell counts) after immunization: increased
  f in total PLN cells after immunization: significant; also recorded: increased f
Footpad immunization, day 7, total PLN
  absolute lymphoproliferation (cell counts × f): significant
Sorted B cells, day 7
  f in PLN B cells after immunization: variable, but low and not
Sorted CD4+ T cells, day 7
  f in CD4+ T cells after immunization: stimulated; also recorded: Significant DNCB effect
Sorted CD8+ T cells, day 7
  f in CD8+ T cells after immunization: stimulated; also recorded: Significant DNCB effect
